The results are deposited in PubChem (AID1224904; Broad Institute, 2016).

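293T-iDUX4 cells carrying a ZSCAN4-driven Gaussia luciferase and a tet-on Italica luciferase control; the gap between the two luminescence signals is read after 24 h. The test concentration is not given here. Percent difference between the Gaussia and Italica channels; more negative values mean more selective suppression of the DUX4 reporter, and higher values mean less activity.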

Values are in %. How 0% and 100% were set is not given here. Common to all entries: measured here: selective DUX4 reporter inhibition. This is a side read-out of the assay, for part of the compounds, not drawn at random.

* COc1ccc(C#Cc2ccc([C@@H]3[C@@H](CO)N4CCCCN(C(=O)Cc5ccccc5)C[C@H]34)cc2)cc1 | Gaussia minus Italica difference -16.69%
* CCCC#Cc1ccc([C@H]2[C@H](CO)N3CCCCN(S(=O)(=O)Cc4ccccc4)C[C@@H]23)cc1 | Gaussia minus Italica difference -6.456%
* O=C(c1cccc(F)c1)N1CC[C@@H]2[C@H](CO)Nc3ccc(-c4cccc(F)c4)cc3[C@@H]21 | Gaussia minus Italica difference -15.45%
* N#C[C@@H]1[C@H](c2ccccc2-c2ccccc2F)[C@H](CO)N1C(=O)Cc1ccccc1 | Gaussia minus Italica difference 2.601%
* CCC(=O)N1CC(=O)N2[C@H](C1)[C@@H](c1ccc(-c3ccccc3F)cc1)[C@@H]2CO | Gaussia minus Italica difference -15.28%
* O=C(C1CCCC1)N1[C@@H](CO)[C@@H](c2ccccc2)C12CN(Cc1cccc(Cl)c1)C2 | Gaussia minus Italica difference -13.31%
* C[C@H]1CN([C@@H](C)CO)C(=O)c2ccccc2-c2ccccc2CO[C@H]1CN(C)Cc1ccc(C(F)(F)F)cc1 | Gaussia minus Italica difference -4.956%
* Cc1cccc(-c2ccc(C3[C@@H]4CN(C(=O)Nc5ccc(F)cc5)C[C@H]3N4)cc2)c1 (some centres not stated) | Gaussia minus Italica difference -24.21%
* COc1cccc(CN2CC3(C2)CN(C(=O)C2CC2)[C@H](CO)c2c3c3ccc(OC)cc3n2C)c1 | Gaussia minus Italica difference -16.62%
* Cc1ccc(S(=O)(=O)N2CC[C@@H]3[C@@H](CO)N(C)c4ccc(C#Cc5cccnc5)cc4[C@@H]32)cc1 | Gaussia minus Italica difference -14.1%
* COc1ccc(C#Cc2ccc([C@@H]3[C@H]4CN(Cc5ccccc5F)CCCCN4[C@H]3CO)cc2)cc1 | Gaussia minus Italica difference -23.71%
* O=S(=O)(c1ccccc1F)N1CC[C@@H]2[C@@H](CO)Nc3ccc(C4=CCCCC4)cc3[C@@H]21 | Gaussia minus Italica difference 16.34%
* N#C[C@H]1[C@@H](c2ccccc2C2=CCCCC2)[C@@H](CO)N1C(=O)c1cccc(F)c1 | Gaussia minus Italica difference -12.26%
* COc1ccc2c3c([nH]c2c1)[C@H](CO)N(C(=O)Nc1ccc(F)cc1)CC31CN(C(=O)Cc2ccccc2)C1 | Gaussia minus Italica difference -15.9%
* CO[C@H]1CN(C)C(=O)c2ccc(NC(=O)Nc3ccccc3Cl)cc2OC[C@H](C)NC[C@@H]1C | Gaussia minus Italica difference -10.43%
* C[C@H](CO)N1C[C@H](C)[C@H](CN(C)Cc2ccc(F)cc2)OCc2ccccc2-c2c(n(C)c3ccccc23)C1=O | Gaussia minus Italica difference 6.955%
* COc1ccc(CN2C[C@@H](O)COC[C@@H]3O[C@H](CC(=O)N4CCc5ccccc5C4)CC[C@H]32)cc1 | Gaussia minus Italica difference -16.36%
* N#Cc1cccc(-c2ccc([C@H]3[C@H](CO)N4CCCCN(S(=O)(=O)c5ccccc5)C[C@@H]34)cc2)c1 | Gaussia minus Italica difference -14.99%
* COc1ccc2c3c([nH]c2c1)[C@H](CO)N(CC1CC1)CC31CCN(Cc2ccccc2F)CC1 | Gaussia minus Italica difference 11.46%
* O=C(C1CC1)N1CC[C@@H]2[C@@H](CO)Nc3ccc(-c4ccc(F)cc4)cc3[C@@H]21 | Gaussia minus Italica difference -5.544%
* O=C1CN(S(=O)(=O)c2ccccc2)C[C@@H]2[C@@H](c3ccc(C#CCc4ccccc4)cc3)[C@H](CO)N12 | Gaussia minus Italica difference -4.341%
* COc1ccc(CN2CC3(CN(Cc4ccccc4OC)C3)c3c([nH]c4cc(OC)ccc34)[C@H]2CO)cc1 | Gaussia minus Italica difference -8.087%
* C[C@@H]1CN([C@H](C)CO)C(=O)c2c(c3ccccc3n2C)-c2ccccc2CO[C@H]1CN(C)S(=O)(=O)c1ccc(C(F)(F)F)cc1 | Gaussia minus Italica difference 0.1543%
* N#Cc1cccc(-c2ccc3c(c2)[C@@H]2[C@@H](CCN2C(=O)C2CCCCC2)[C@H](CO)N3)c1 | Gaussia minus Italica difference 20.72%
* Cc1ccccc1S(=O)(=O)N1CC[C@@H]2[C@@H](CO)Nc3ccc(-c4cccc(F)c4)cc3[C@@H]21 | Gaussia minus Italica difference -14.06%
* COc1ccc2c3c([nH]c2c1)[C@@H](CO)N(C(C)=O)CC31CCN(Cc2ccccc2Cl)CC1 | Gaussia minus Italica difference 21.69%
* Cc1ccc(S(=O)(=O)N2CC[C@@H]3[C@@H](CO)Nc4ccc(-c5cccc(C(=O)N(C)C)c5)cc4[C@@H]32)cc1 | Gaussia minus Italica difference 25.06%
* Cc1ccc(S(=O)(=O)N2C[C@@H]3N[C@H](C2)C3c2ccc(/C=C/c3ccccc3)cc2)cc1 (some centres not stated) | Gaussia minus Italica difference 4.986%
* CCC(=O)N1CCCCN2[C@H](CO)[C@@H](c3ccc(/C=C/c4ccccc4)cc3)[C@H]2C1 | Gaussia minus Italica difference -13.55%
* Cc1ccccc1S(=O)(=O)N(C)C[C@@H]1OCc2ccccc2-c2c(n(C)c3ccccc23)C(=O)N([C@H](C)CO)C[C@@H]1C | Gaussia minus Italica difference 1.099%
* O=C(Nc1ccc2c(c1)[C@H]1C[C@@H](CC(=O)N3CCc4ccccc4C3)O[C@H](CO)[C@H]1O2)Nc1ccccc1F | Gaussia minus Italica difference -7.098%
* O=C(C[C@@H]1CC[C@@H]2[C@H](COC[C@@H](O)CN2Cc2cccc(Cl)c2)O1)Nc1nccs1 | Gaussia minus Italica difference -3.974%
* COc1ccccc1NC(=O)N1CCCCN2[C@H](CO)[C@H](c3ccc(-c4cccc(C#N)c4)cc3)[C@@H]2C1 | Gaussia minus Italica difference -2.785%
* O=C(Nc1ccc(C(F)(F)F)cc1)Nc1ccc2c(c1)[C@@H]1C[C@@H](CC(=O)N3CCc4ccccc4C3)O[C@@H](CO)[C@@H]1O2 | Gaussia minus Italica difference -13.75%
* O=C(C[C@@H]1CC[C@H]2[C@@H](COC[C@@H](O)CN2CC2CCCCC2)O1)NCc1ccc(F)cc1 | Gaussia minus Italica difference -1.41%
* O=C(C[C@H]1CC[C@H]2[C@@H](COC[C@H](O)CN2Cc2nccs2)O1)N1CCC(Cc2ccccc2)CC1 | Gaussia minus Italica difference 5.482%
* C[C@H](CO)N1C[C@H](C)[C@H](CN(C)C(=O)c2cc(Cl)cc(Cl)c2)OCc2ccccc2-c2c(n(C)c3ccccc23)C1=O | Gaussia minus Italica difference -0.5697%
* C[C@H]1CN([C@@H](C)CO)S(=O)(=O)c2ccc(/C=C/c3ccccc3)cc2O[C@@H]1CN(C)C(=O)Nc1cccc(F)c1 | Gaussia minus Italica difference 7.967%
* N#C[C@H]1[C@H](c2ccccc2C2=CCCC2)[C@@H](CO)N1C(=O)NC1CCCCC1 | Gaussia minus Italica difference 0.1697%
* C/C=C/c1ccc([C@@H]2[C@H]3CN(C(=O)Nc4cc(F)ccc4F)CCCCN3[C@H]2CO)cc1 | Gaussia minus Italica difference -21.19%
* Cc1ccccc1-c1ccccc1[C@H]1[C@@H](CO)N(C(=O)c2ccc(F)cc2)[C@H]1C#N | Gaussia minus Italica difference -2.124%
* C[C@@H](NC(=O)C[C@H]1C[C@H]2c3cc(NC(=O)Nc4ccccc4F)ccc3O[C@H]2[C@H](CO)O1)c1ccccc1 | Gaussia minus Italica difference 1.045%

The last 4 entries again:

structure	Gaussia minus Italica difference (%)
N#C[C@H]1[C@H](c2ccccc2C2=CCCC2)[C@@H](CO)N1C(=O)NC1CCCCC1	0.1697
C/C=C/c1ccc([C@@H]2[C@H]3CN(C(=O)Nc4cc(F)ccc4F)CCCCN3[C@H]2CO)cc1	-21.19
Cc1ccccc1-c1ccccc1[C@H]1[C@@H](CO)N(C(=O)c2ccc(F)cc2)[C@H]1C#N	-2.124
C[C@@H](NC(=O)C[C@H]1C[C@H]2c3cc(NC(=O)Nc4ccccc4F)ccc3O[C@H]2[C@H](CO)O1)c1ccccc1	1.045